Results deposited as PubChem BioAssay AID686943 (Drosophila RNAi Screening Center, 2013).
The screen tested about 23,000 reagents; this is a random part of those with a known target gene and a result. 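Extra replicates exist only for a retested subset of genes; insulin dose and duration not given; both raised and lowered dpERK matter.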 A plus sign joins genes that one reagent is predicted to hit. Further read-outs or replicates are left out here. Reagent sequences are not shown. Not given: the amount of reagent, the time to read-out.

Test: 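Fly genes whose loss alters ERK activation after insulin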 (primary screen)
Cell system: Drosophila S2R+ haemocyte-like cells expressing YFP-tagged ERK (Rolled)
Reagents: long dsRNA against Drosophila genes
Challenge: insulin stimulation versus unstimulated cells; dose and duration not given
Read-out: 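Antibody staining for doubly phosphorylated ERK divided by ERK-YFP signal, as plate z-scores, in insulin-treated and untreated cells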
Reading the numbers: replicate 1, z-score of dpERK with insulin and replicate 2, z-score of dpERK with insulin: higher = more active ERK per ERK-YFP after insulin

Chpf [DRSC19491]
- replicate 1, z-score of dpERK with insulin: 0.04
- replicate 2, z-score of dpERK with insulin: 0.07

Chpf [DRSC19893]
- replicate 1, z-score of dpERK with insulin: 0.6
- replicate 2, z-score of dpERK with insulin: 0.8

Tap42 [DRSC02967]
- replicate 1, z-score of dpERK with insulin: 0.06
- replicate 2, z-score of dpERK with insulin: -0.26

CG1468 [DRSC17946]
- replicate 1, z-score of dpERK with insulin: -1.16
- replicate 2, z-score of dpERK with insulin: 0.64

RpS7 [DRSC15394]
- replicate 1, z-score of dpERK with insulin: 1.69
- replicate 2, z-score of dpERK with insulin: 0

Smyd3 [DRSC17744]
- replicate 1, z-score of dpERK with insulin: 1.16
- replicate 2, z-score of dpERK with insulin: -0.59

GckIII [DRSC15729]
- replicate 1, z-score of dpERK with insulin: -2.46
- replicate 2, z-score of dpERK with insulin: -1.58

hll [DRSC01944]
- replicate 1, z-score of dpERK with insulin: -2.35
- replicate 2, z-score of dpERK with insulin: 0

Atu [DRSC12123]
- replicate 1, z-score of dpERK with insulin: 0.13
- replicate 2, z-score of dpERK with insulin: 0.12

CG16753 [DRSC08489]
- replicate 1, z-score of dpERK with insulin: 0.91
- replicate 2, z-score of dpERK with insulin: -0.23

CG15533 [DRSC15069]
- replicate 1, z-score of dpERK with insulin: 0.1
- replicate 2, z-score of dpERK with insulin: 0

Drat [DRSC06600]
- replicate 1, z-score of dpERK with insulin: -1.16
- replicate 2, z-score of dpERK with insulin: -1.4

CG3746 [DRSC04412]
- replicate 1, z-score of dpERK with insulin: -0.16
- replicate 2, z-score of dpERK with insulin: 0.75

Alas [DRSC04044]
- replicate 1, z-score of dpERK with insulin: -0.55
- replicate 2, z-score of dpERK with insulin: 0.04

Socs44A [DRSC06828]
- replicate 1, z-score of dpERK with insulin: -0.04
- replicate 2, z-score of dpERK with insulin: -0.19

Tudor-SN [DRSC08581]
- replicate 1, z-score of dpERK with insulin: -0.35
- replicate 2, z-score of dpERK with insulin: -0.7

CG42531 [DRSC05318]
- replicate 1, z-score of dpERK with insulin: -0.95
- replicate 2, z-score of dpERK with insulin: 0.03

san [DRSC07695]
- replicate 1, z-score of dpERK with insulin: -0.08
- replicate 2, z-score of dpERK with insulin: 0.3

CG31206 [DRSC13388]
- replicate 1, z-score of dpERK with insulin: -0.72
- replicate 2, z-score of dpERK with insulin: 0.19

sturkopf [DRSC08637]
- replicate 1, z-score of dpERK with insulin: 0.22
- replicate 2, z-score of dpERK with insulin: 1.38

CG10479 [DRSC09733]
- replicate 1, z-score of dpERK with insulin: 0.06
- replicate 2, z-score of dpERK with insulin: 0.45

CG14624 [DRSC18634]
- replicate 1, z-score of dpERK with insulin: 1.87
- replicate 2, z-score of dpERK with insulin: -0.33

yellow-g [DRSC08575]
- replicate 1, z-score of dpERK with insulin: 0.1
- replicate 2, z-score of dpERK with insulin: 1.2

Or67c [DRSC11242]
- replicate 1, z-score of dpERK with insulin: -0.04
- replicate 2, z-score of dpERK with insulin: 0.17

CG10353 [DRSC19354]
- replicate 1, z-score of dpERK with insulin: -0.87
- replicate 2, z-score of dpERK with insulin: -0.86

mEFTu1 [DRSC06959]
- replicate 1, z-score of dpERK with insulin: -0.1
- replicate 2, z-score of dpERK with insulin: 0.6

CG13285 [DRSC09960]
- replicate 1, z-score of dpERK with insulin: 0.56
- replicate 2, z-score of dpERK with insulin: 0.2

eIF2alpha [DRSC20327]
- replicate 1, z-score of dpERK with insulin: -0.46
- replicate 2, z-score of dpERK with insulin: -2.72

Ir100a [DRSC14329]
- replicate 1, z-score of dpERK with insulin: 0.15
- replicate 2, z-score of dpERK with insulin: -1.06

CG32679 [DRSC17644]
- replicate 1, z-score of dpERK with insulin: 1.13
- replicate 2, z-score of dpERK with insulin: 0.77

nAChRalpha3 [DRSC18800]
- replicate 1, z-score of dpERK with insulin: -0.14
- replicate 2, z-score of dpERK with insulin: 0.08

CG33695 + cana [DRSC01163]
- replicate 1, z-score of dpERK with insulin: -1.04
- replicate 2, z-score of dpERK with insulin: -1.31

CG33695 + cana [DRSC03503]
- replicate 1, z-score of dpERK with insulin: 0.77
- replicate 2, z-score of dpERK with insulin: 0.34

CG12182 [DRSC08142]
- replicate 1, z-score of dpERK with insulin: -0.78
- replicate 2, z-score of dpERK with insulin: -0.66

CG4066 [DRSC15541]
- replicate 1, z-score of dpERK with insulin: 0.43
- replicate 2, z-score of dpERK with insulin: 0.82

CG33203 [DRSC14874]
- replicate 1, z-score of dpERK with insulin: -1.78
- replicate 2, z-score of dpERK with insulin: -0.21

CG33203 [DRSC14876]
- replicate 1, z-score of dpERK with insulin: 1.36
- replicate 2, z-score of dpERK with insulin: -0.11

CG33203 [DRSC14877]
- replicate 1, z-score of dpERK with insulin: 0.68
- replicate 2, z-score of dpERK with insulin: -0.04

brv1 [DRSC11076]
- replicate 1, z-score of dpERK with insulin: 0.03
- replicate 2, z-score of dpERK with insulin: 0.68

RpS5b [DRSC16173]
- replicate 1, z-score of dpERK with insulin: 0.42
- replicate 2, z-score of dpERK with insulin: 0.65

Copied from the entries so far (3 entries):
CG15533 [DRSC15069]
- replicate 1, z-score of dpERK with insulin: 0.1
- replicate 2, z-score of dpERK with insulin: 0

Drat [DRSC06600]
- replicate 1, z-score of dpERK with insulin: -1.16
- replicate 2, z-score of dpERK with insulin: -1.4

CG3746 [DRSC04412]
- replicate 1, z-score of dpERK with insulin: -0.16
- replicate 2, z-score of dpERK with insulin: 0.75
